Test results reported in the supplement of paper PMC12823440, “Inhibitors supercharge kinase turnover through native proteolytic circuits” (Nature, 2025).
Where a name gives a salt, the structure may show the parent alone. The list shows a part of the results. The calls rarely recur for the same compound in another form.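 In K562 cells expressing nanoluciferase-fused kinases, luminescence was recorded at 4 h intervals between 2 and 18 h, normalized as percent of control with DMSO at 100% and a positive control at 0%. A significant (2 sigma) signal drop marks a time point as decreased. The authors' rule for a hit is not shown and takes in more than the number of time points.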

By UniProt entry, the sequences of proteins in these tests, tags left out. Where a name states a change or a piece, a line headed by the entry shows the natural chain unless it says otherwise.
UniProt P10398: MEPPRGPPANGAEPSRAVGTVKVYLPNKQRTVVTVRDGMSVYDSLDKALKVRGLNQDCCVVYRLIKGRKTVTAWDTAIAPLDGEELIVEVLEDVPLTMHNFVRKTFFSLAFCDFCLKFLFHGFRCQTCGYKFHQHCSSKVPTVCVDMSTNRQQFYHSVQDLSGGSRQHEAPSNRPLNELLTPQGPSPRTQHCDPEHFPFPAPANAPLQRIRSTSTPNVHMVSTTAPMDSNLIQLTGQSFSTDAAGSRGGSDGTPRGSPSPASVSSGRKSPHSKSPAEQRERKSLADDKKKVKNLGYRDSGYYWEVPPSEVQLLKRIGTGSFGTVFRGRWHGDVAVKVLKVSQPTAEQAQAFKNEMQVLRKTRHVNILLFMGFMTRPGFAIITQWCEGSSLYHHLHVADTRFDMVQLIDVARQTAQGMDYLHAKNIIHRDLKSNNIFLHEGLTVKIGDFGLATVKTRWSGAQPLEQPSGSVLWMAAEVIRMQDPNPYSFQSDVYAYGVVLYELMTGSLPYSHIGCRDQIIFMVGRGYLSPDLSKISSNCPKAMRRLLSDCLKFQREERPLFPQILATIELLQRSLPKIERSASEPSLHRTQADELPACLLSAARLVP
UniProt Q96GD4, whole entry: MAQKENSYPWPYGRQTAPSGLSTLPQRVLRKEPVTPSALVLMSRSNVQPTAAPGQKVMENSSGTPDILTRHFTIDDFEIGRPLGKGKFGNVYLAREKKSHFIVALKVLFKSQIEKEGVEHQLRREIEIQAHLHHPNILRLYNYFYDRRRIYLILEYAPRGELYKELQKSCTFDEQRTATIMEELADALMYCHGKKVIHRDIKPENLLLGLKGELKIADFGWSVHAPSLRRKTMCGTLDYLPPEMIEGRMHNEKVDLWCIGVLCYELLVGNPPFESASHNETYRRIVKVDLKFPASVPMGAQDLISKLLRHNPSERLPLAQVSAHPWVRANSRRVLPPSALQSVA
UniProt Q9UQB9: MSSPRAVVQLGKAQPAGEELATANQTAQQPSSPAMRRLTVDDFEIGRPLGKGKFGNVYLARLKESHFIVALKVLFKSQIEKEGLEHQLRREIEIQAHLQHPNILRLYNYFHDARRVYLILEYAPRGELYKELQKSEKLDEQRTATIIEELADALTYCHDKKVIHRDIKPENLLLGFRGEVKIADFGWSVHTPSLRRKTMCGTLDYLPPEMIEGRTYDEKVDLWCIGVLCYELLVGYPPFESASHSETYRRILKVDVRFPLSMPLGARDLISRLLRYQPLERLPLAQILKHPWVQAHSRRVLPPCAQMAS
UniProt P51451: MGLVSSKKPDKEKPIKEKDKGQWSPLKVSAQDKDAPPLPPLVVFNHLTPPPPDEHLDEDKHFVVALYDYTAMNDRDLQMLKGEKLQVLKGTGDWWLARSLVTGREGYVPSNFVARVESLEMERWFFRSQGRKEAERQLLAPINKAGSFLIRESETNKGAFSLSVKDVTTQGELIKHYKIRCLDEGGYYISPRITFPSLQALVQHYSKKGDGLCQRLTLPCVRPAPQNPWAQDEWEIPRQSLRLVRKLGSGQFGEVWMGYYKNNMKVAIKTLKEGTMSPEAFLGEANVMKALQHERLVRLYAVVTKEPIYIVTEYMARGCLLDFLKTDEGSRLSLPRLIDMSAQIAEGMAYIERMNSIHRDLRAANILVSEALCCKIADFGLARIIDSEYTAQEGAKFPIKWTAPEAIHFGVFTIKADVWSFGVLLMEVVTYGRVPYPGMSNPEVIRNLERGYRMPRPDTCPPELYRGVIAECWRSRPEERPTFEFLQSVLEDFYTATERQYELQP
UniProt P15056, whole entry, looked up: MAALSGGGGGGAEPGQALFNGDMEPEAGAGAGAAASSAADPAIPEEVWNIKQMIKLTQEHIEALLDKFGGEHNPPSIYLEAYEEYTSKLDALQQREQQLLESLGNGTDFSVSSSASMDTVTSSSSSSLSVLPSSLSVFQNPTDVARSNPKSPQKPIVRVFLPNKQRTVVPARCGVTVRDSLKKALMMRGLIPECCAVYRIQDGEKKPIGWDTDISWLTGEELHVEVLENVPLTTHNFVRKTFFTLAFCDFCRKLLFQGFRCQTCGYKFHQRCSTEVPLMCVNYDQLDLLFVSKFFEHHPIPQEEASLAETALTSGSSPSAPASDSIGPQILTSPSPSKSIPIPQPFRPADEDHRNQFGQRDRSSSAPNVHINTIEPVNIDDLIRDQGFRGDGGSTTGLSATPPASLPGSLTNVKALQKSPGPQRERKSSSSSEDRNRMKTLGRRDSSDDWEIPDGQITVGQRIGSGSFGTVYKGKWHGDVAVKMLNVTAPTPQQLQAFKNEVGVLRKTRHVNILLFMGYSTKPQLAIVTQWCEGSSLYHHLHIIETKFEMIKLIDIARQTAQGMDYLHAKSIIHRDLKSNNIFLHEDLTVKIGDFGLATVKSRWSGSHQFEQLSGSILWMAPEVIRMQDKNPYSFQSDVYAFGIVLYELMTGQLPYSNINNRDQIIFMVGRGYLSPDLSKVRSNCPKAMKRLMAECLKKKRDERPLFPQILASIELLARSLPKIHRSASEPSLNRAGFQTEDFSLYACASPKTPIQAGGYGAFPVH
UniProt Q13555: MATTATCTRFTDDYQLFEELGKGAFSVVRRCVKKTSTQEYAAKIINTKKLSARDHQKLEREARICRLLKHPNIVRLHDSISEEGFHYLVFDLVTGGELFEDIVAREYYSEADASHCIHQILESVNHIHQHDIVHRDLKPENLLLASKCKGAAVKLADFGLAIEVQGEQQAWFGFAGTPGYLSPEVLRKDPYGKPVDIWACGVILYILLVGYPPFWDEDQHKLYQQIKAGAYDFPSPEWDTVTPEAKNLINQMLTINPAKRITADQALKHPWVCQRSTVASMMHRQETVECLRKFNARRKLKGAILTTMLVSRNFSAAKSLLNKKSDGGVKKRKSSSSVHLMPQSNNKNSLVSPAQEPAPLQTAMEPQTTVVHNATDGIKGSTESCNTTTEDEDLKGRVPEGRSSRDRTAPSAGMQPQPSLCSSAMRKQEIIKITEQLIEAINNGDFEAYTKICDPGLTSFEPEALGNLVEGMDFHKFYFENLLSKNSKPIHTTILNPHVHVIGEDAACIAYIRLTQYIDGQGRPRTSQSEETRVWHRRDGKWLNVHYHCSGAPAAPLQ
UniProt Q15131: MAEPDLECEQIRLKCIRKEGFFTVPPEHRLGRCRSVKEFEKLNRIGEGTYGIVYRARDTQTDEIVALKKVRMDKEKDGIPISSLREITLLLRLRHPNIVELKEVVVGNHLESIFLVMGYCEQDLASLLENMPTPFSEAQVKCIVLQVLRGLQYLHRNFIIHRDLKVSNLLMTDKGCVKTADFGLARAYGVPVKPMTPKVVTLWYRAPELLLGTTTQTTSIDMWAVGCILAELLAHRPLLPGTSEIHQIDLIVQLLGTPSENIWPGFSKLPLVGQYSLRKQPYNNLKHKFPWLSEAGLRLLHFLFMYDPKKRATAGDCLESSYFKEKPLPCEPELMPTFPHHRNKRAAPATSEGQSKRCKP
UniProt Q00526: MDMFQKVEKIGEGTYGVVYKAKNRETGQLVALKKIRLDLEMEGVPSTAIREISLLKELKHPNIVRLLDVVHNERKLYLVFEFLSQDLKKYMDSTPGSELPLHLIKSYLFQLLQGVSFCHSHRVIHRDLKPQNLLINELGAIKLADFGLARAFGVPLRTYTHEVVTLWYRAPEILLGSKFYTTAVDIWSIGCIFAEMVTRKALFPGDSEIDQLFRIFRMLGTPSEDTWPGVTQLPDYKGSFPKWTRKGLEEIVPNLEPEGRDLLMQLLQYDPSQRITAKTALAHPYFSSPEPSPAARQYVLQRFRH
UniProt Q00535, whole entry, looked up: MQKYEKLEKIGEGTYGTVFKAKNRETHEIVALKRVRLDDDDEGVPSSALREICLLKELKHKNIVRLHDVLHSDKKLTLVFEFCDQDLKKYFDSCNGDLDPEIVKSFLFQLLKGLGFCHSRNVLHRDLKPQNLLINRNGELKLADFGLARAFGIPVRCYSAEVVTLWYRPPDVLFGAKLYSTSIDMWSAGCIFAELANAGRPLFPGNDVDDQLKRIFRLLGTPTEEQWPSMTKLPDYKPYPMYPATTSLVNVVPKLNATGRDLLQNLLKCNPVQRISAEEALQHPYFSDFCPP
UniProt Q00534, whole entry: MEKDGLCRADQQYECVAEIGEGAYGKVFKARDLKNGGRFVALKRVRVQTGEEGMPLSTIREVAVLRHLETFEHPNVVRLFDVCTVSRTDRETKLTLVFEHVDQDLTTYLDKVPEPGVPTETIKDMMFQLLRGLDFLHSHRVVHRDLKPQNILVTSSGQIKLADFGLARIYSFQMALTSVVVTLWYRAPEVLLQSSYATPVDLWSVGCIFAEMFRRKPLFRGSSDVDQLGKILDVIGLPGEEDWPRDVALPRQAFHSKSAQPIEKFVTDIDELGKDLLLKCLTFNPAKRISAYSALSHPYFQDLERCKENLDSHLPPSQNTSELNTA
UniProt O96017, whole entry: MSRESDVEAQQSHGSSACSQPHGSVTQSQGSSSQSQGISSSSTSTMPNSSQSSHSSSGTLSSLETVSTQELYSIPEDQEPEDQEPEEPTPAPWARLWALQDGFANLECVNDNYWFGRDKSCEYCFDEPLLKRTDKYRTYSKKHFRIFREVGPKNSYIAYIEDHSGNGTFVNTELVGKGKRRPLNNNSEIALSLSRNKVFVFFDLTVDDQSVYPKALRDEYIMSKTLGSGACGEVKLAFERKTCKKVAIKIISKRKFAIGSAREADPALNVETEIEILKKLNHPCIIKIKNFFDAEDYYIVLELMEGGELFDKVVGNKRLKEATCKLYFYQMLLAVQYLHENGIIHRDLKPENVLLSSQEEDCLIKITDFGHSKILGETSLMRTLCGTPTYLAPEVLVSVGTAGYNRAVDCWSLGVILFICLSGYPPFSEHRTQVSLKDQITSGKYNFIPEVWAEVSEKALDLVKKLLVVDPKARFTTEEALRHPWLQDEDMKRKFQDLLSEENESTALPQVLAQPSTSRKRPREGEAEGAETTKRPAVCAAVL
UniProt P07333, whole entry: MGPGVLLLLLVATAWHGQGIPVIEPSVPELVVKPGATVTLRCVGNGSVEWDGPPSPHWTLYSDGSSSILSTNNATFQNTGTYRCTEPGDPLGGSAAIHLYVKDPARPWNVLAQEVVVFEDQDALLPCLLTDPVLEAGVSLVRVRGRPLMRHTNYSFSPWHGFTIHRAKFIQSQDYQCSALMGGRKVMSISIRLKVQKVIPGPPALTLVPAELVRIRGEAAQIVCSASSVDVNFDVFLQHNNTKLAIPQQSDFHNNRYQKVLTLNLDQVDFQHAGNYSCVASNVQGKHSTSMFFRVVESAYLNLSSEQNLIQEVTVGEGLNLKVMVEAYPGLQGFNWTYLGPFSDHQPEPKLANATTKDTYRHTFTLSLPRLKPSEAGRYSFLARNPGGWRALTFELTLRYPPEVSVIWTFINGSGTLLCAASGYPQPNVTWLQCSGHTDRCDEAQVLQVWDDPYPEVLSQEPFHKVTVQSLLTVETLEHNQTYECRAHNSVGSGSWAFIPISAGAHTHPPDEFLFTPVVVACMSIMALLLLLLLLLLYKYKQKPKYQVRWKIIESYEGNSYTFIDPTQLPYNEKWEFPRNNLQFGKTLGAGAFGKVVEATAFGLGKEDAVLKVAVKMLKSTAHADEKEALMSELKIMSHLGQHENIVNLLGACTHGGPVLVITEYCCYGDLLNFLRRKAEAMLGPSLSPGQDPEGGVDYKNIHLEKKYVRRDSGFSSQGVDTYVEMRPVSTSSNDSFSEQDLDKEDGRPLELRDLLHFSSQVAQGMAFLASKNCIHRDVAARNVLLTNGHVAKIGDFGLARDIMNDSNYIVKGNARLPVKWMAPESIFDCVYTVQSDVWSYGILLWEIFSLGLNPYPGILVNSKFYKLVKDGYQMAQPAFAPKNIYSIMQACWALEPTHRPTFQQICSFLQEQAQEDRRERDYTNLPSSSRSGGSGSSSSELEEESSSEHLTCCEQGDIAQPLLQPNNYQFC
UniProt P41240: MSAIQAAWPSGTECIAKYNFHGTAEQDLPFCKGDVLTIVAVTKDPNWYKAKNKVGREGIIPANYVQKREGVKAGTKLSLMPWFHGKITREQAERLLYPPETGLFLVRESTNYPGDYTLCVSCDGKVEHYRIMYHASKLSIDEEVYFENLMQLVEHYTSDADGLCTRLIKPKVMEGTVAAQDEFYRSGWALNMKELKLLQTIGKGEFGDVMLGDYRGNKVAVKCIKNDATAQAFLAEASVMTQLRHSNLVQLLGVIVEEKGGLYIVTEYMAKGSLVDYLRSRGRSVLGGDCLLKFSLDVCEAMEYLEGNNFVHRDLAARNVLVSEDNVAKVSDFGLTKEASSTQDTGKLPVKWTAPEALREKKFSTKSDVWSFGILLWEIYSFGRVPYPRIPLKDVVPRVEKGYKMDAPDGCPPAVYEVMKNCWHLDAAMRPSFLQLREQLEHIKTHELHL

Experiments:
Test in all cases: number of time points (of 5) at which kinase-Nluc abundance scored as decreased, DMSO-normalised (count); higher = more persistent destabilization
Conditions in all cases: K562; 2-18 h
[1] = biological target: ALK (UniProt Q9UM73)
[2] = biological target: ARAF (UniProt P10398)
[3] = biological target: AURKA (UniProt O14965)
[4] = biological target: AURKB (UniProt Q96GD4)
[5] = biological target: AURKC (UniProt Q9UQB9)
[6] = biological target: BLK (UniProt P51451)
[7] = biological target: BMX (UniProt P51813)
[8] = biological target: BRAF (UniProt P15056)
[9] = system: BRAF_V600E
[10] = biological target: BTK (UniProt Q06187)
[11] = biological target: CAMK2A (UniProt Q9UQM7)
[12] = biological target: CAMK2G (UniProt Q13555)
[13] = biological target: CDK10 (UniProt Q15131)
[14] = biological target: CDK2 (UniProt P24941)
[15] = biological target: CDK3 (UniProt Q00526)
[16] = biological target: CDK5 (UniProt Q00535)
[17] = biological target: CDK6 (UniProt Q00534)
[18] = biological target: CHEK2 (UniProt O96017)
[19] = biological target: CSF1R (UniProt P07333)
[20] = biological target: CSK (UniProt P41240)

Row | SMILES | number of time points [1] | number of time points [2] | number of time points [3] | number of time points [4] | number of time points [5] | number of time points [6] | number of time points [7] | number of time points [8] | number of time points [9] | number of time points [10] | number of time points [11] | number of time points [12] | number of time points [13] | number of time points [14] | number of time points [15] | number of time points [16] | number of time points [17] | number of time points [18] | number of time points [19] | number of time points [20]
1 | CCOc1ccc2cc(-c3nn(CC4CCN(C)CC4)c4ncnc(N)c34)ccc2n1 (10 µM) | 0 | 0 | 0 | 0 | 0 | 0 | 0 | 0 | 0 | 0 | 0 | 0 | 0 | 0 | 0 | 0 | 0 | 0 | 0 | 0
2 | CN1CCN(c2cccc(Nc3nc4c(-c5ccc(S(C)(=O)=O)cc5)cccn4n3)c2)CC1 (10 µM) | 0 | 0 | 0 | 0 | 0 | 0 | 0 | 0 | 0 | 0 | 0 | 0 | 0 | 0 | 0 | 0 | 0 | 0 | 0 | 0
3 | O=C(N/N=C/c1coc2ccccc2c1=O)c1cccnc1 (10 µM) | 0 | 0 | 0 | 0 | 0 | 0 | 0 | 0 | 0 | 0 | 0 | 0 | 0 | 0 | 0 | 0 | 0 | 0 | 0 | 0
4 | Oc1ccc(Nc2nc(-c3ccc(Cl)cc3)cs2)cc1 (10 µM) | 0 | 0 | 0 | 0 | 0 | 0 | 0 | 0 | 0 | 0 | 0 | 0 | 0 | 0 | 0 | 0 | 0 | 0 | 0 | 0
5 | COc1ccc(OC)c(C2C(C#N)=C(N)Oc3n[nH]c(-c4ccc5ccccc5c4)c32)c1 (stereo not given) (10 µM) | 0 | 0 | 0 | 0 | 0 | 0 | 0 | 0 | 0 | 0 | 0 | 0 | 0 | 0 | 0 | 0 | 0 | 0 | 0 | 0
6 | CN(CC(=O)N(Cc1ccc(C2CCCCC2)cc1)c1ccc(C(=O)NO)cc1)S(=O)(=O)c1c(F)c(F)c(F)c(F)c1F (2.5 µM) | 0 | 0 | 0 | 0 | 0 | 0 | 0 | 0 | 0 | 0 | 0 | 0 | 0 | 0 | 0 | 0 | 0 | 0 | 0 | 0
7 | C=CC(=O)Nc1cccc(Nc2nc(Nc3ccc(NC4CN(CCF)C4)cc3OC)ncc2C(F)(F)F)c1 (2.5 µM) | 0 | 0 | 0 | 0 | 0 | 0 | 0 | 0 | 0 | 0 | 0 | 0 | 0 | 0 | 0 | 0 | 0 | 0 | 0 | 0
8 | Cc1ccccc1-c1c2nccc(-c3ccc(F)cc3F)c2cc[n+]1[O-] (10 µM) | 0 | 0 | 0 | 0 | 0 | 0 | 0 | 0 | 0 | 0 | 0 | 0 | 0 | 0 | 0 | 0 | 0 | 0 | 0 | 0
9 | C[C@@H](c1ccc(F)cc1)n1nnc2cnc3ccc(-c4ccc5ocnc5c4)cc3c21 (10 µM) | 0 | 0 | 0 | 0 | 0 | 0 | 0 | 0 | 0 | 0 | 0 | 0 | 0 | 0 | 0 | 0 | 0 | 0 | 0 | 0
10 | CC(C)(C)c1cc(O)ccc1O (10 µM) | 0 | 0 | 0 | 0 | 0 | 0 | 0 | 0 | 0 | 0 | 0 | 0 | 0 | 0 | 0 | 0 | 0 | 0 | 0 | 0
11 | Nc1cc(C(F)(F)F)c(-c2cc(N3CCOCC3)nc(N3CCOCC3)n2)cn1 [Buparlisib (Hydrochloride)] (2.5 µM) | 0 | 0 | 0 | 0 | 0 | 0 | 0 | 0 | 1 | 0 | 0 | 0 | 0 | 0 | 0 | 0 | 0 | 0 | 1 | 0
12 | COc1cc(/C=C/C(=O)NCC(O)c2ccc(O)cc2)ccc1O (stereo not given) [N-Feruloyloctopamine] (2.5 µM) | 0 | 0 | 0 | 0 | 0 | 0 | 0 | 0 | 0 | 0 | 0 | 0 | 0 | 0 | 0 | 0 | 0 | 0 | 0 | 0
13 | CC[C@@H](Oc1nc(Oc2cc(C)cc(-c3cccc(CN)c3)c2)c(F)cc1F)C(=O)O (10 µM) | 0 | 0 | 0 | 0 | 0 | 0 | 0 | 0 | 0 | 0 | 0 | 0 | 0 | 0 | 0 | 0 | 0 | 0 | 0 | 0
14 | CN(C)CCCOc1ccc(-c2ccc3ncc4c(c3c2)n(C2CCOCC2)c(=O)n4C)cn1 (2 µM) | 0 | 0 | 0 | 0 | 0 | 0 | 0 | 0 | 0 | 0 | 0 | 0 | 0 | 0 | 0 | 0 | 0 | 0 | 0 | 0
15 | NCCNS(=O)(=O)c1cccc2c(Cl)cccc12 [A-3 (hydrochloride)] (10 µM) | 0 | 0 | 0 | 0 | 0 | 0 | 0 | 0 | 0 | 0 | 0 | 0 | 0 | 0 | 0 | 0 | 0 | 0 | 0 | 0
16 | C=CC(=O)Nc1ccc(CN2C(=O)N(c3cc(OC)cc(OC)c3)Cc3cnc(Nc4ccc(N5CCN(C)CC5)cc4)nc32)cc1 (2.5 µM) | 0 | 0 | 0 | 0 | 0 | 5 | 0 | 2 | 0 | 0 | 0 | 0 | 0 | 0 | 0 | 0 | 0 | 0 | 0 | 0
17 | NS(=O)(=O)c1ccc(-n2nc(C(F)(F)F)cc2-c2ccc(Cl)cc2)cc1 (10 µM) | 0 | 0 | 0 | 0 | 0 | 0 | 0 | 0 | 0 | 0 | 0 | 0 | 0 | 0 | 0 | 0 | 0 | 0 | 0 | 0
18 | CCCS(=O)(=O)Nc1ccc(F)c(C(=O)c2c[nH]c3ncc(-c4ccc(Cl)cc4)cc23)c1F [Vemurafenib] (10 µM) | 1 | 0 | 0 | 0 | 0 | 2 | 2 | 1 | 0 | 0 | 0 | 0 | 0 | 0 | 0 | 0 | 0 | 0 | 0 | 0
19 | Cn1cc(-c2cnn3c(N)c(Br)c([C@@H]4CCCNC4)nc23)cn1 (2.5 µM) | 2 | 0 | 0 | 0 | 0 | 0 | 1 | 1 | 1 | 0 | 0 | 0 | 0 | 1 | 0 | 0 | 0 | 0 | 1 | 0
20 | FC(F)(F)c1ccc(CNc2ccc(Cc3c[nH]c4ncccc34)cn2)cc1 (10 µM) | 0 | 0 | 0 | 0 | 0 | 0 | 0 | 0 | 0 | 0 | 0 | 0 | 0 | 1 | 0 | 0 | 0 | 0 | 0 | 0
21 | CNc1nc(Nc2ccc(C(=O)N3CCOCC3)cc2OC)nc2[nH]cc(Cl)c12 (2.5 µM) | 0 | 0 | 0 | 0 | 0 | 0 | 0 | 0 | 0 | 0 | 0 | 0 | 0 | 0 | 0 | 0 | 0 | 0 | 0 | 0
22 | Oc1cc(O)c2cc(O)c(-c3cc(O)c(O)c(O)c3)[o+]c2c1 [Delphinidin (chloride)] (10 µM) | 0 | 0 | 1 | 0 | 0 | 2 | 0 | 3 | 0 | 0 | 0 | 0 | 0 | 0 | 0 | 0 | 0 | 2 | 0 | 0
23 | CCS(=O)(=O)Nc1ccc2[nH]c(O)c(C(=Nc3ccc(CN4CCCCC4)cc3)c3ccccc3)c2c1 [Hesperadin] (2.5 µM) | 1 | 0 | 3 | 4 | 0 | 2 | 3 | 1 | 3 | 0 | 0 | 0 | 0 | 0 | 0 | 0 | 0 | 2 | 0 | 0
24 | O=C(NCCN1CCCC1)c1cc(-c2ccc(CN3CCOCC3)cc2)nc2ccc(F)cc12 (10 µM) | 0 | 0 | 0 | 0 | 0 | 0 | 0 | 0 | 0 | 0 | 0 | 0 | 0 | 0 | 0 | 0 | 0 | 0 | 0 | 0
25 | COCCNc1nc2ccc(C#CC3(O)CCCCC3)cc2n1-c1ccnc(N)n1 (10 µM) | 0 | 0 | 0 | 0 | 0 | 0 | 0 | 0 | 0 | 0 | 0 | 0 | 0 | 0 | 0 | 0 | 0 | 0 | 0 | 0

3 structures already listed, ordered by number of heavy atoms, rising:
Row | SMILES | number of time points [1] | number of time points [2] | number of time points [3] | number of time points [4] | number of time points [5] | number of time points [6] | number of time points [7] | number of time points [8] | number of time points [9] | number of time points [10] | number of time points [11] | number of time points [12] | number of time points [13] | number of time points [14] | number of time points [15] | number of time points [16] | number of time points [17] | number of time points [18] | number of time points [19] | number of time points [20]
4 | Oc1ccc(Nc2nc(-c3ccc(Cl)cc3)cs2)cc1 (10 µM) | 0 | 0 | 0 | 0 | 0 | 0 | 0 | 0 | 0 | 0 | 0 | 0 | 0 | 0 | 0 | 0 | 0 | 0 | 0 | 0
17 | NS(=O)(=O)c1ccc(-n2nc(C(F)(F)F)cc2-c2ccc(Cl)cc2)cc1 (10 µM) | 0 | 0 | 0 | 0 | 0 | 0 | 0 | 0 | 0 | 0 | 0 | 0 | 0 | 0 | 0 | 0 | 0 | 0 | 0 | 0
9 | C[C@@H](c1ccc(F)cc1)n1nnc2cnc3ccc(-c4ccc5ocnc5c4)cc3c21 (10 µM) | 0 | 0 | 0 | 0 | 0 | 0 | 0 | 0 | 0 | 0 | 0 | 0 | 0 | 0 | 0 | 0 | 0 | 0 | 0 | 0
